From PubChem BioAssay AID1117319 (Southern Research Institute, 2015)
Hit rate of the full screen: of about 260,000 compounds, about 1,500 (0.58%) were called active. This list was built around the results that the source calls inconclusive (neither active nor inactive); the mix of calls is not that of the screen.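 How the source made its calls: active means inhibition above a set limit at one or more doses, reproduced on every date tested; inconclusive means results disagree between test dates, or hit never tested in dose response; inactive means the rest.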

Amino acid sequences for entries named in this document (tags omitted). A change or cut given only in a name is not applied to a line headed by its entry.
UniProt P69720: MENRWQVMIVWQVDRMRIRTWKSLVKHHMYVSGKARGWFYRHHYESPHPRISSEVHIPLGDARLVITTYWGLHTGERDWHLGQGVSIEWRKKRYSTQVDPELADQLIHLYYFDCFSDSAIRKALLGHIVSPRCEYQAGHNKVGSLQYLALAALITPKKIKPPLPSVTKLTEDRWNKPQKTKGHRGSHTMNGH
UniProt P69721: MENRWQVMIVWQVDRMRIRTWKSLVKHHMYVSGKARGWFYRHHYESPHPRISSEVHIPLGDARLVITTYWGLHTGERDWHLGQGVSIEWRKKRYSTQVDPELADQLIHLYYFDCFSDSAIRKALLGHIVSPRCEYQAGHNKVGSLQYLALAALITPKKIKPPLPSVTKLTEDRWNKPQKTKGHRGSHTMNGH
UniProt P69722: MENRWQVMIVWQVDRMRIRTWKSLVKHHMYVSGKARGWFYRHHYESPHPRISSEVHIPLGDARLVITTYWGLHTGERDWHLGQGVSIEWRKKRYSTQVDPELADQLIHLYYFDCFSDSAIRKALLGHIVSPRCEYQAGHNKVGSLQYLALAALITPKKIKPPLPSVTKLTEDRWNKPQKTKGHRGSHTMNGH
UniProt P69723: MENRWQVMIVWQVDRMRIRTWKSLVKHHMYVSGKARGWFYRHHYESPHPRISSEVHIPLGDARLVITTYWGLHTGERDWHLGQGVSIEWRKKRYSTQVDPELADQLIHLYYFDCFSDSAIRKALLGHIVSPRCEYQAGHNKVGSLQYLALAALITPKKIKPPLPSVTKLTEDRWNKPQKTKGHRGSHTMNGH
UniProt Q9HC16: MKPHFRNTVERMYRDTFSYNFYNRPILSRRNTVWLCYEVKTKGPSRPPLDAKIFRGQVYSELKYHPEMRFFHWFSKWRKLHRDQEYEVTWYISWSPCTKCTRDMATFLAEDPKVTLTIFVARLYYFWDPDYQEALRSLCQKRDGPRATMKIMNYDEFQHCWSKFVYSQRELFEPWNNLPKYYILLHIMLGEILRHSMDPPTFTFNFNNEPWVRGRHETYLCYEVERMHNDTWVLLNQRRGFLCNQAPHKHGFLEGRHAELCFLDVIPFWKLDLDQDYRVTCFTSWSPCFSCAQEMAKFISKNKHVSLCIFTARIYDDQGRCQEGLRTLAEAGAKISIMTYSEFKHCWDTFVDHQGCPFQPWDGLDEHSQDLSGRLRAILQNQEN

target: Virion infectivity factor (Human immunodeficiency virus type 1 group M subtype B (isolate BH10)) + Virion infectivity factor (Human immunodeficiency virus type 1 group M subtype B (isolate BRU/LAI)) + Virion infectivity factor (Human immunodeficiency virus type 1 group M subtype B (isolate PCV12)) + Virion infectivity factor (Human immunodeficiency virus type 1 group M subtype B (isolate HXB2)) + DNA dC->dU-editing enzyme APOBEC-3G (Homo sapiens) (UniProt P69720+P69721+P69722+P69723+Q9HC16); test: inhibitors of Vif binding to APOBEC3G peptide, primary screen, biochemical, TR-FRET, GST-Vif 1-94, biotin-A3G peptide, dose response retest (AID 1117319); conditions: stronger effect = higher value;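 further: Vif residues 1-94 fused to GST binding biotinylated APOBEC3G peptide 110-148; 0% = full assay without inhibitor and 100% = GST in place of GST-Vif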

Row | SMILES | inhibition
1 | COc1ccc(-n2ncc3c(=O)n(CC(=O)N4CCCc5ccccc54)cnc32)cc1 | inconclusive: 33.4%
2 | CCOC(=O)N1CCN(CCC(=O)Nc2cc([N+](=O)[O-])ccc2OC)CC1 | inconclusive: 44.4%
3 | Cc1c(C(=O)NCc2ccco2)cccc1[N+](=O)[O-] | inconclusive: 46.3%
4 | O=C(CN1CCSC1=NCc1ccccc1)c1ccc(Cl)cc1 | inconclusive: 39.9%
5 | CCC1=[N+](CC(=O)c2ccc(C)cc2)CCn2cccc21 | inconclusive: 42.7%
6 | CCOC(=O)c1cc2oc(C)cc2n1CC(=O)OC1CCCCC1 | inconclusive: 55.4%
7 | Oc1ccc(Cl)cc1-c1cc(-c2ccco2)[nH]n1 | inconclusive: 47.2%
8 | COc1ccc(Cl)cc1NC(=O)CNc1ccccc1F | inconclusive: 38%
9 | Cc1cc(C)cc(-n2ccnc2SCC(=O)O)c1 | inconclusive: 39.9%
10 | COCCNC(=O)C(c1cccs1)N(C(=O)Cn1nnc2ccccc21)c1ccc2c(c1)OCO2 (stereo not drawn) | inconclusive: 37.2%
11 | Cn1c(CN2CCCC2)nc2cc(NC(=O)COc3ccc([N+](=O)[O-])cc3)ccc21 | inconclusive: 45.7%
12 | O=[N+]([O-])c1cc(-c2ncccn2)c([N+](=O)[O-])s1 | inconclusive: 34.6%
13 | CCCOc1ccc(C2C(C(=O)/C=C/c3ccco3)=C(O)C(=O)N2CCN2CCOCC2)cc1OC (stereo not drawn) | inconclusive: 48.2%
14 | Cc1ccc(NC(=O)CN(C)C(=O)c2cccc(S(=O)(=O)NCc3ccco3)c2)cc1 | inconclusive: 36.9%
15 | CCn1c(SCC(=O)O)nnc1-c1cc2c(C)nn(-c3ccccc3)c2s1 | inconclusive: 23.1%
16 | O=C(NCCN1CCOCC1)c1ccc(CSc2nc3ccncc3n2Cc2ccc(F)cc2)cc1 | inconclusive: 40.4%
17 | O=C(NC1(C(F)(F)F)NC(=O)N(CC2CCCCC2)C1=O)c1ccco1 (stereo not drawn) | inactive: 9.27%
18 | CCOC(=O)c1cc2c(ccn2C)n1CC(=O)N1CCN(c2ccccc2OC)CC1 | inconclusive: 35.2%
19 | CC(=O)N(Cc1ccco1)C1(C(=O)NC2CCCCC2)CCCCC1 | inconclusive: 60.2%
20 | COc1cc(S(=O)(=O)N(Cc2ccccn2)Cc2ccco2)ccc1-n1cnnn1 | inactive: -2.53%
21 | O=C(c1cnc2ccc3ccccc3c2c1)c1cc(F)ccc1O | inconclusive: 57.9%
22 | COc1ccc(Nc2nc3ccc(OC)cc3s2)cc1 | inconclusive: 61%

Row | SMILES | inhibition
23 | Oc1c(C(c2ccccn2)N2CCOCC2)ccc2cccnc12 (stereo not drawn) | inconclusive: 45.4%
24 | CCCCC(CCC(=O)O)(C(=O)OCC)c1csc(Nc2ccc(OCC)cc2)n1 (stereo not drawn) | inconclusive: 41.2%
25 | CC(C)OCCCn1c(=NC(=O)c2ccncc2)c(C#N)cc2c(=O)n3ccccc3nc21 | inconclusive: 61%
26 | O=C(NCc1ccccc1F)C1CCN(C(=O)c2sccc2-n2cccc2)CC1 | inconclusive: 34.3%
27 | CCn1c(SCC(=O)Nc2cc(C)on2)nnc1-c1ccccc1 | inactive: -1.57%
28 | O=C(/C=C\c1ccc2c(c1)OCO2)Nc1c2c(nn1-c1ccc(Cl)cc1)CSC2 | inconclusive: 50.6%
29 | O=[N+]([O-])c1cc(Cl)cc(/C=N/NC(=S)Nc2ccc(S(=O)(=O)N3CCOCC3)cc2)c1O | inconclusive: 44.8%
30 | COc1ccccc1-c1ccc(/C=C2/C=C(C)OC2=O)o1 | inconclusive: 43.9%
31 | Cn1c(Cn2cnc3ccccc32)nnc1SCC(=O)CC(=O)Nc1ccccc1 | inconclusive: 52.3%
32 | C=CCOC(=O)c1cc(-c2ccc(/C=C3\C(=O)NC(=O)C(C#N)=C3C)o2)ccc1Cl | inconclusive: 57.7%
33 | COc1ccc(C2N(c3ccc4c(c3)OCCO4)C(=O)C2(F)F)cc1OC (stereo not drawn) | inconclusive: 33.5%
34 | CN(C)C(=O)c1cnc(Sc2ncc(C(F)(F)F)cc2Cl)n1C | inconclusive: 37.2%
35 | CCN(CC)c1ccc(NC(=S)NC(=O)c2cccs2)cc1 | inconclusive: 41.1%
36 | O=C(CSc1nc2c(c(=O)n1-c1ccc(Br)cc1)SCC2)NCC1CCCO1 (stereo not drawn) | inconclusive: 50.2%
37 | COc1cc([C@@H]2[C@H]3CNCC=C3C(C#N)=C(N)C2(C#N)C#N)ccc1OC(C)C | inconclusive: 59.8%
38 | O=C(CN1CCN(c2ncc(C(F)(F)F)cc2Cl)CC1)NC(=O)NCc1ccccc1 | inconclusive: 61.7%
39 | COc1ccc(C2NC3=C(CCC3)C3(C#N)C(OC)(OC)N=C(N)C23C#N)cc1 (stereo not drawn) | inconclusive: 34.4%
40 | O=C(COC(=O)C1CCN(c2ccc(C(F)(F)F)cn2)CC1)NCc1ccccc1 | inconclusive: 48.8%
41 | COc1ccc(C(=O)CC2SC(N)=NC2=O)cc1 (stereo not drawn) | inconclusive: 38.3%
42 | C[C@@H](CO)NC(=O)c1ccc2c3n(nc2c1)-c1ccccc1CO3 | inactive: -3.9%
43 | C=CCn1c(SCC(=O)Nc2cc(C)on2)nc2sc(CC)cc2c1=O | inconclusive: 31%
44 | Cc1cc(C(=O)COC(=O)CC2Sc3ccccc3NC2=O)c(C)n1-c1ccc(Br)cc1 (stereo not drawn) | inconclusive: 56.3%

Row | SMILES | inhibition
45 | O=S(=O)(c1ccccc1)c1nc(-c2ccco2)oc1Nc1ccccc1 | inconclusive: 46.1%
46 | Cc1cc(/C=N/n2cnnc2)c(C)n1-c1ccc(OCc2ccc(F)cc2)cc1 | inconclusive: 46.7%
47 | CC(=O)Nc1ccc(NS(=O)(=O)c2cc(Cl)ccc2Cl)cc1 | inconclusive: 57.9%
48 | CCOC(=O)c1cnc2ccc(OCC)cc2c1N1CCN(c2ccccc2)CC1 | inconclusive: 38.6%
49 | N#Cc1ccccc1-n1c(N)c(C(=O)N2CCCC2)sc1=S | inconclusive: 39.6%
50 | Clc1cccc(NCc2cn3cccnc3n2)c1 | inconclusive: 33.6%
51 | CC(C)Cc1nnc(NC(=O)CSc2nc(=O)cc(N)n2-c2ccccc2)s1 | inconclusive: 58.2%
52 | CCOc1cc(CNc2ccc(N3CCOCC3)cc2)cc(Br)c1OCC | inconclusive: 36.8%
53 | O=C(CNc1cc(S(=O)(=O)N2CCCC2)ccc1OCC(F)(F)F)Nc1cc(Cl)cc(Cl)c1 | inconclusive: 39.8%
54 | Cc1cc2c(cc1C)CN(c1ccccc1)C2 | inconclusive: 43.2%
55 | Cc1ccc(NC(=O)CN2CCCCC2)c2c1CC(C)(C)O2 | inconclusive: 57%
56 | COC(=O)c1ccccc1N=Nc1c(C)n[nH]c1C | inactive: -7.02%
57 | CC(C)N1C(=O)CCC1C(=O)O (stereo not drawn) | inconclusive: 38.9%
58 | Cc1cc(C(=O)CSC(C)c2nc3ccccc3c(=O)[nH]2)c(C)n1C (stereo not drawn) | inconclusive: 52.5%
59 | COC(=O)Cc1nnc(NC(=O)C(C)C)s1 | inconclusive: 35.9%
60 | O=C(CCCc1nc(-c2ccccc2Cl)no1)N1CCOCC1 | inconclusive: 39.4%
61 | CCN(C(C)=O)c1nnc(CSc2nc3ccccc3s2)s1 | inconclusive: 40.6%
62 | CC1CCc2c(sc(NC(=S)NC(=O)c3ccccc3)c2C#N)C1 (stereo not drawn) | inconclusive: 46.9%
63 | CCOc1c(OC(C)=O)ccc(/C=C/c2ccc3cccc(OC)c3n2)c1[N+](=O)[O-] | inactive: 21.2%
64 | Cc1ccc(C(=O)CSC2=C(C#N)C(c3ccco3)CC(=O)N2)c(C)c1 (stereo not drawn) | inconclusive: 62.5%
65 | Cc1nc(N2CCN(C(=O)c3ccco3)CC2)nc2c1C(=O)CC(C)C2 (stereo not drawn) | inactive: -2.42%
66 | COc1ccc2nc(N3C(=O)/C(=C/c4ccc(Cl)cc4)NC3=S)sc2c1 | inconclusive: 34.8%

25 of the compounds above, in CSV form:
Row,SMILES,inhibition
39,COc1ccc(C2NC3=C(CCC3)C3(C#N)C(OC)(OC)N=C(N)C23C#N)cc1 (stereo not drawn),inconclusive: 34.4%
40,O=C(COC(=O)C1CCN(c2ccc(C(F)(F)F)cn2)CC1)NCc1ccccc1,inconclusive: 48.8%
41,COc1ccc(C(=O)CC2SC(N)=NC2=O)cc1 (stereo not drawn),inconclusive: 38.3%
42,C[C@@H](CO)NC(=O)c1ccc2c3n(nc2c1)-c1ccccc1CO3,inactive: -3.9%
43,C=CCn1c(SCC(=O)Nc2cc(C)on2)nc2sc(CC)cc2c1=O,inconclusive: 31%
44,Cc1cc(C(=O)COC(=O)CC2Sc3ccccc3NC2=O)c(C)n1-c1ccc(Br)cc1 (stereo not drawn),inconclusive: 56.3%
45,O=S(=O)(c1ccccc1)c1nc(-c2ccco2)oc1Nc1ccccc1,inconclusive: 46.1%
46,Cc1cc(/C=N/n2cnnc2)c(C)n1-c1ccc(OCc2ccc(F)cc2)cc1,inconclusive: 46.7%
47,CC(=O)Nc1ccc(NS(=O)(=O)c2cc(Cl)ccc2Cl)cc1,inconclusive: 57.9%
48,CCOC(=O)c1cnc2ccc(OCC)cc2c1N1CCN(c2ccccc2)CC1,inconclusive: 38.6%
49,N#Cc1ccccc1-n1c(N)c(C(=O)N2CCCC2)sc1=S,inconclusive: 39.6%
50,Clc1cccc(NCc2cn3cccnc3n2)c1,inconclusive: 33.6%
51,CC(C)Cc1nnc(NC(=O)CSc2nc(=O)cc(N)n2-c2ccccc2)s1,inconclusive: 58.2%
52,CCOc1cc(CNc2ccc(N3CCOCC3)cc2)cc(Br)c1OCC,inconclusive: 36.8%
54,Cc1cc2c(cc1C)CN(c1ccccc1)C2,inconclusive: 43.2%
55,Cc1ccc(NC(=O)CN2CCCCC2)c2c1CC(C)(C)O2,inconclusive: 57%
56,COC(=O)c1ccccc1N=Nc1c(C)n[nH]c1C,inactive: -7.02%
57,CC(C)N1C(=O)CCC1C(=O)O (stereo not drawn),inconclusive: 38.9%
58,Cc1cc(C(=O)CSC(C)c2nc3ccccc3c(=O)[nH]2)c(C)n1C (stereo not drawn),inconclusive: 52.5%
59,COC(=O)Cc1nnc(NC(=O)C(C)C)s1,inconclusive: 35.9%
60,O=C(CCCc1nc(-c2ccccc2Cl)no1)N1CCOCC1,inconclusive: 39.4%
62,CC1CCc2c(sc(NC(=S)NC(=O)c3ccccc3)c2C#N)C1 (stereo not drawn),inconclusive: 46.9%
63,CCOc1c(OC(C)=O)ccc(/C=C/c2ccc3cccc(OC)c3n2)c1[N+](=O)[O-],inactive: 21.2%
65,Cc1nc(N2CCN(C(=O)c3ccco3)CC2)nc2c1C(=O)CC(C)C2 (stereo not drawn),inactive: -2.42%
66,COc1ccc2nc(N3C(=O)/C(=C/c4ccc(Cl)cc4)NC3=S)sc2c1,inconclusive: 34.8%

(cont.)

Row | SMILES | inhibition
67 | NC(=O)CC[C@@H]1NC(=O)[C@H](CO)NC(=O)c2cc([N+](=O)[O-])cc(I)c2OCC[C@@H](C(N)=O)NC1=O | inconclusive: 33.8%
68 | CCCc1nc2ccccc2c(=O)n1NC(=O)c1c(O)c2ccccc2[nH]c1=O | inconclusive: 41.1%
69 | N#CC1=C(N)Oc2c(ccc3ccccc23)C1c1ccsc1 (stereo not drawn) | inconclusive: 42.9%
70 | O=C(c1ccc(COc2ccc3ccccc3c2)o1)N1N=C(C(F)F)CC1(O)C(F)F (stereo not drawn) | inactive: -0.12%
71 | C=CCn1c(SCC(=O)Nc2cccc(C(=O)OC)c2)nnc1C(C)NC(=O)c1cccs1 (stereo not drawn) | inconclusive: 37.2%
72 | Cc1cc(NC(=O)c2cncc(Br)c2)n(-c2ccccn2)n1 | inconclusive: 48%
73 | O=C(COc1cnc2ccccc2n1)NCCC1=CCCCC1 | inconclusive: 44.3%
74 | COc1ccc(CN=Cc2c(C(=O)O)[nH]c3ccccc23)cc1 | inconclusive: 43.6%
75 | CCCN1CCN(C(=O)Cn2ncc3ccccc32)CC1 | inconclusive: 49.5%
76 | Cc1nn(Cc2c(Cl)cccc2Cl)c(C)c1NC(=O)/C=C/c1cnn(C)c1C | inconclusive: 52.3%
77 | O=C1N=C(N2CCOCC2)SC1=C1CCCCC1 | inconclusive: 39.4%
78 | N#Cc1ccc(-c2ccco2)nc1SCc1ccccc1 | inconclusive: 36.4%
79 | CCOC(=O)c1sc2nccc(N(C)C)c2c1N=CNOCc1c(F)cccc1Cl | inconclusive: 52.1%
80 | O=C1CNC(=S)N1Cc1ccc(F)cc1 | inactive: 5.9%
81 | CCOC(=O)Nc1cccc(Nc2ccccc2)c1 | inconclusive: 34.5%
82 | CC(C)Oc1cccc(NC(=O)c2cnccc2C(F)(F)F)c1 | inconclusive: 57.8%
83 | CCn1nc(CC(=O)Nc2nnc(CC(=O)N3CCOCC3)s2)c2ccccc2c1=O | inconclusive: 34.6%
84 | CC(=O)c1cc(F)ccc1OCC(=O)N1CCCc2ccccc21 | inconclusive: 59.4%
85 | C/C(=N\NC(=O)c1ccncc1)c1cccs1 | inconclusive: 38.4%
86 | O=C(Nc1cc(S(=O)(=O)Nc2ccccc2Cl)ccc1O)c1sc2cc(Cl)ccc2c1Cl | inconclusive: 40%
87 | Cc1cc(C)c2c(c1)/C(=N/NC(=S)Nc1ccc(F)cc1)CCC2 | inconclusive: 41.4%
88 | CCOC(=O)c1c(-c2ccccc2)csc1N1C(=O)Nc2ccccc2N1O | inconclusive: 37.4%
